Source: the supplement of paper PMC10849652
This is one part of the list.

Amino acid sequences for entries named in this document (tags omitted). A change or cut given only in a name is not applied to a line headed by its entry.
UniProt Q9GZR7: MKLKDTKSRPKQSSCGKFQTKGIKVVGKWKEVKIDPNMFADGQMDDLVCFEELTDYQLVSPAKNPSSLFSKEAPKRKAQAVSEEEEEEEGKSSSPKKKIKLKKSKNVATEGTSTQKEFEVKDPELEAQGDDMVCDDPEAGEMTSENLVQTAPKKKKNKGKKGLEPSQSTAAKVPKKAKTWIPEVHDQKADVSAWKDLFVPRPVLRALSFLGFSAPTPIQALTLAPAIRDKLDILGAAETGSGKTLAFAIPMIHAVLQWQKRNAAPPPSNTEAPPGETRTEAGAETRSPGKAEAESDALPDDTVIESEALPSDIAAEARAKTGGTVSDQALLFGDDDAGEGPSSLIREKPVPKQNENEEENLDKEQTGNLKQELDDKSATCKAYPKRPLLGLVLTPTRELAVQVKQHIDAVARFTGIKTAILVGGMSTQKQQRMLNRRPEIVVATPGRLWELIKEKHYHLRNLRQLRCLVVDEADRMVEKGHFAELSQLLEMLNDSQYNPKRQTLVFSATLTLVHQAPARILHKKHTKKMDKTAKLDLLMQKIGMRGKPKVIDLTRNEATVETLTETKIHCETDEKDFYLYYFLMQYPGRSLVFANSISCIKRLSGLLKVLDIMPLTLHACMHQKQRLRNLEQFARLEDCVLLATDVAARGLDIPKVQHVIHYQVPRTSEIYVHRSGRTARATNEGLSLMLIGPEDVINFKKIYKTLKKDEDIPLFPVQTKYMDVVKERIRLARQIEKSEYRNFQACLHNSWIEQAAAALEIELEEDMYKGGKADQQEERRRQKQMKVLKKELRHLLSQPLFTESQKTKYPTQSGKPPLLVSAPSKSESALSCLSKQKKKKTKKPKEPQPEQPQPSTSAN
UniProt P61803: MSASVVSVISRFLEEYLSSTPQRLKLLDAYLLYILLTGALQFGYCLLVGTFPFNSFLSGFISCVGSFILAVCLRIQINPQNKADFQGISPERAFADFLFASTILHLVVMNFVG
UniProt Q9UHI6: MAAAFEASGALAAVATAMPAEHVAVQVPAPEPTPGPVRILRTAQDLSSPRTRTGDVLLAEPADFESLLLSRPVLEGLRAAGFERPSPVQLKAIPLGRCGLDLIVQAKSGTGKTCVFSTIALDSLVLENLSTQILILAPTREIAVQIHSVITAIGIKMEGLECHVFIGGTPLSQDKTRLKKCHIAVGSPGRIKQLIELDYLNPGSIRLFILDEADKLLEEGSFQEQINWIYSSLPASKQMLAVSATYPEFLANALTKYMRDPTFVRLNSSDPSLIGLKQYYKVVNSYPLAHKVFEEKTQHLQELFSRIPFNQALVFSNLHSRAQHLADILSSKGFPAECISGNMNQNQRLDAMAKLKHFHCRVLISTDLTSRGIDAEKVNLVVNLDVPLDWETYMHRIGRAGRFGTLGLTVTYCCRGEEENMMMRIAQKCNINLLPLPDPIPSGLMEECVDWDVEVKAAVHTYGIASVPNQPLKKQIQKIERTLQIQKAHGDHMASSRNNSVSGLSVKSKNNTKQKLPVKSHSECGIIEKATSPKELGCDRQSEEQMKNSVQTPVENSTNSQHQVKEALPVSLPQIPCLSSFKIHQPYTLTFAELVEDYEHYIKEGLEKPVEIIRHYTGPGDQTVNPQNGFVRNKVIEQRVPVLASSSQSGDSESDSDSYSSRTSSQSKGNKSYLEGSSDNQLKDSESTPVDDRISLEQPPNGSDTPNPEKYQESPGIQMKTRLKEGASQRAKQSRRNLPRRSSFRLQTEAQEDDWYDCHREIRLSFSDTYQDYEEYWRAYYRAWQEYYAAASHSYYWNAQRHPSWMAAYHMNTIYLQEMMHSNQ
UniProt Q92466: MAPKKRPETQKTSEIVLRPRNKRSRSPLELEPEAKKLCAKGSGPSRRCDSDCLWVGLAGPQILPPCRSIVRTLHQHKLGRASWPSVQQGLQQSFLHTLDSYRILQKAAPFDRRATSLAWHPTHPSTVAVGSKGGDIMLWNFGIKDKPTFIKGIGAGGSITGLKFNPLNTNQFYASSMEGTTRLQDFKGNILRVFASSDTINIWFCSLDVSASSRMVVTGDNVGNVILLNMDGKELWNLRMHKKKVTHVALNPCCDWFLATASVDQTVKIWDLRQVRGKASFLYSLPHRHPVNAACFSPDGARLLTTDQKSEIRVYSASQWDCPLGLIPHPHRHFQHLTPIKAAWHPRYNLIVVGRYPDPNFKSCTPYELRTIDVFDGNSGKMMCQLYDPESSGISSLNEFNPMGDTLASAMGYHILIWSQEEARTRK
UniProt Q8NA75: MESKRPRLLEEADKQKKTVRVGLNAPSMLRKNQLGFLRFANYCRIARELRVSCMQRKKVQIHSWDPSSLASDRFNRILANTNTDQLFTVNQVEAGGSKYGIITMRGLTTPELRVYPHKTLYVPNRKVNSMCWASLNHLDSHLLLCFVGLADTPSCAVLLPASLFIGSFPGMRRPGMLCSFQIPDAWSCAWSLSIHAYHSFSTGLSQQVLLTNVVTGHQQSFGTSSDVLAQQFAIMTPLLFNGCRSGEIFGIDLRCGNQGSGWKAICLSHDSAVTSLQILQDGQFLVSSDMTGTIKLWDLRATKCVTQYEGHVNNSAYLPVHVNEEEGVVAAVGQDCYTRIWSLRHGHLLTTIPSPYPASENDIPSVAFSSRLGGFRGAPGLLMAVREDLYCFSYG
UniProt P98082: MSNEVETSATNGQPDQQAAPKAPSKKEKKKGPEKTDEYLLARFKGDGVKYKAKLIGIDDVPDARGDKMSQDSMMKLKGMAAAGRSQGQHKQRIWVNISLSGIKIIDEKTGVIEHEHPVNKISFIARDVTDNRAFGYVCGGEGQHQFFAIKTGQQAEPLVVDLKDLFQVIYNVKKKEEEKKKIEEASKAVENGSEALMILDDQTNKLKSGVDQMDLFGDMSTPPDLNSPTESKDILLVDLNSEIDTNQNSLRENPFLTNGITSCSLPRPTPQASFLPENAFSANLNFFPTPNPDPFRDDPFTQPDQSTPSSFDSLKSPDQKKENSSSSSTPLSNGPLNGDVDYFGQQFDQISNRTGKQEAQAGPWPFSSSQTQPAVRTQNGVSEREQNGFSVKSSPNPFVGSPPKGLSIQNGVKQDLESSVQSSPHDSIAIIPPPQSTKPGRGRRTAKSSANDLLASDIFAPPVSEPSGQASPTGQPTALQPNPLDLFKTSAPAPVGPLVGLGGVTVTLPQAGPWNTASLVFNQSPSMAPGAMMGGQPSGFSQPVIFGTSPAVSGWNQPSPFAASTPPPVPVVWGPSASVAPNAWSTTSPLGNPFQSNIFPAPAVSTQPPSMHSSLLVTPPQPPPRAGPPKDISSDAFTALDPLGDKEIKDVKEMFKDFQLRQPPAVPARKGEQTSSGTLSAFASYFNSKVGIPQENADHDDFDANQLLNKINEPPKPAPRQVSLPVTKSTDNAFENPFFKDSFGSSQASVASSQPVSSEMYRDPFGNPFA
UniProt O75064: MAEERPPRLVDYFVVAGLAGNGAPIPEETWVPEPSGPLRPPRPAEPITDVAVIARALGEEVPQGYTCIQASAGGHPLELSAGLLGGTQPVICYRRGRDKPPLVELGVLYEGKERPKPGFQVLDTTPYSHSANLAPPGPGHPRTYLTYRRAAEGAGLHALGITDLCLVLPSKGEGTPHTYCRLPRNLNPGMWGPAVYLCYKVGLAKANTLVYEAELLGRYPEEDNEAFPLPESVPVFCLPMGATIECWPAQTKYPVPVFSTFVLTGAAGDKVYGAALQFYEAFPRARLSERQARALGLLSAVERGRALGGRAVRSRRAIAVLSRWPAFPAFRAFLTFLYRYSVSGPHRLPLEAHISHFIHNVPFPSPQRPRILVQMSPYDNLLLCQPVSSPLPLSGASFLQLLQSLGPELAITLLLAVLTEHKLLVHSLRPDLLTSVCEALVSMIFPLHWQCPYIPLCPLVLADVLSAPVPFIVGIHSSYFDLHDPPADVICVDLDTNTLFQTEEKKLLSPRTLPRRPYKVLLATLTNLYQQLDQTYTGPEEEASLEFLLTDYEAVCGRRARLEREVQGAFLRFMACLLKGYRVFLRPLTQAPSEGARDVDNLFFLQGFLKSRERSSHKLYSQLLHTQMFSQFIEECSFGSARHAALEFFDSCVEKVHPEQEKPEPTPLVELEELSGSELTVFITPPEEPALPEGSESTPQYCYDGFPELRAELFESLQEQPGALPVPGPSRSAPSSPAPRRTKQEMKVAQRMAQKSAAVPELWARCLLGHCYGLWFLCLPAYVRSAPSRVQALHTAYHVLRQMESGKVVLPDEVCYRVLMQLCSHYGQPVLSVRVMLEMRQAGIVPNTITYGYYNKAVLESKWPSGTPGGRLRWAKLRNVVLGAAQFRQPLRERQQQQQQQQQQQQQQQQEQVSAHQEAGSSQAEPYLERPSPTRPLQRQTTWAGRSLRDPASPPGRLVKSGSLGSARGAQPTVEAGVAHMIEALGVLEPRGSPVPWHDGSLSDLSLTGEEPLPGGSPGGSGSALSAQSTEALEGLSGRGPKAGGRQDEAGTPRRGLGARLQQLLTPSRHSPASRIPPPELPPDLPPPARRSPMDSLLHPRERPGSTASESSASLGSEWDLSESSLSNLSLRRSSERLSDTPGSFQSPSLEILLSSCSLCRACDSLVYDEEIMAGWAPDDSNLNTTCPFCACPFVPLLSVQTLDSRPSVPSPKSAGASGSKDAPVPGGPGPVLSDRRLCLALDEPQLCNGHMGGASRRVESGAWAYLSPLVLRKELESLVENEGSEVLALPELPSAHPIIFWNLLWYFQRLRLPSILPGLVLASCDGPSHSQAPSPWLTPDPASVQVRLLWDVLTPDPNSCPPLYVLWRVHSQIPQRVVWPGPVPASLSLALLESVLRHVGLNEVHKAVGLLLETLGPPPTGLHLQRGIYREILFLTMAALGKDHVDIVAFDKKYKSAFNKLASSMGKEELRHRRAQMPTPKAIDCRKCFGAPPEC
UniProt Q92564: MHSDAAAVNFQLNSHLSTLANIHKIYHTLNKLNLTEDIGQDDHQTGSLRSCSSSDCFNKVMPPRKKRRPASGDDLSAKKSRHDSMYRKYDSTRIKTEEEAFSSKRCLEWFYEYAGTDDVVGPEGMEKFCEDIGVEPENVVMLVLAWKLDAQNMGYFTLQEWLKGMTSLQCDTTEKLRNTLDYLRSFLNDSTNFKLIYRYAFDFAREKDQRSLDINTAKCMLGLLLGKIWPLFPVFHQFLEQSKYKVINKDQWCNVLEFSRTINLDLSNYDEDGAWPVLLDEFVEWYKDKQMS
UniProt Q9H4E7, whole entry, looked up: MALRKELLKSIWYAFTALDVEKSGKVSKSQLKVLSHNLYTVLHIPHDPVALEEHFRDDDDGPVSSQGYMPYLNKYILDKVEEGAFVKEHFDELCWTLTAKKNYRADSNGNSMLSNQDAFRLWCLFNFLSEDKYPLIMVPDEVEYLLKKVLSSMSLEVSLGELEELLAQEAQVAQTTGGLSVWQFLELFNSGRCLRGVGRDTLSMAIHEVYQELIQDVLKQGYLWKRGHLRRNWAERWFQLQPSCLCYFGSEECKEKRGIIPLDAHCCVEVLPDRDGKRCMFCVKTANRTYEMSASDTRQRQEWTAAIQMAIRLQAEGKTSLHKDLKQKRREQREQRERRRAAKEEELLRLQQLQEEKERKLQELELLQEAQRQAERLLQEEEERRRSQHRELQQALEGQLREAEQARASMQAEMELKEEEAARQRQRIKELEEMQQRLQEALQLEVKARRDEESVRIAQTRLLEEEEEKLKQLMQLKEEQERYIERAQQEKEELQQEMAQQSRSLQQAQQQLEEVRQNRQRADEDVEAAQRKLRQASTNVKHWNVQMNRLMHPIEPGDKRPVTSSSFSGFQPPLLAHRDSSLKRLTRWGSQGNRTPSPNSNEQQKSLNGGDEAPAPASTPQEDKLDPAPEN
UniProt Q9BTE1, whole entry, looked up: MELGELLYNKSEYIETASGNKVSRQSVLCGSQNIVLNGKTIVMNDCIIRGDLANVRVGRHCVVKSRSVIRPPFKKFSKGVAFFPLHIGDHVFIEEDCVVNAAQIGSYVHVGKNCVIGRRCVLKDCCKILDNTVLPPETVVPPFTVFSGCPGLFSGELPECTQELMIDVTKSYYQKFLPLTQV
UniProt Q9Y2R4: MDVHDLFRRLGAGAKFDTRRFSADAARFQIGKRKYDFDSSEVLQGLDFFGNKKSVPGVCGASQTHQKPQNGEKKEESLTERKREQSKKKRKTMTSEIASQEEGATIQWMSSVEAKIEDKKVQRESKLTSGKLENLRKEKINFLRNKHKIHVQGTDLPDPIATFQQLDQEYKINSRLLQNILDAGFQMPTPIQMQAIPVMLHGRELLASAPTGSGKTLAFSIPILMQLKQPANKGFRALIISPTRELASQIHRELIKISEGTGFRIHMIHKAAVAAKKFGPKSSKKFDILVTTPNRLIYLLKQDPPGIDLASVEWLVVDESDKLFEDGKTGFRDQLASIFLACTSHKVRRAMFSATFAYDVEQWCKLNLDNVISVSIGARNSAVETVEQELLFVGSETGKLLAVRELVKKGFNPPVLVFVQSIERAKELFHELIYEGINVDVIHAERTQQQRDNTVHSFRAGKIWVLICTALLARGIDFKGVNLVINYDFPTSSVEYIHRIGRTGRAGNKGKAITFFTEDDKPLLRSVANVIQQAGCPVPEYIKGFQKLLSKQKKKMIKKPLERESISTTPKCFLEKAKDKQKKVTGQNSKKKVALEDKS

Columns and labels:
Assay in all cases: log2 fold change, soluble protein after heating vs DMSO (PISA); higher = thermal stabilisation; K562 lysate, 10 uM; active = over 0.2 and 3.5 SD of the protein, either way, in both replicates (recomputed)
vemurafenib = compound: CCCS(=O)(=O)Nc1ccc(F)c(C(=O)c2c[nH]c3ncc(-c4ccc(Cl)cc4)cc23)c1F [vemurafenib]
Outline: (§1)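 Thermal stability, expressed as log-two fold change relative to solvent controls, is given from duplicates. Crude K562 extract in PBS pH 7.4 with 1 mM MgCl2, at 1 mg/mL protein, was treated with 10 μM compound for 30 min and heated in aliquots for 3 min across 48°C-58°C. After pooling, adjustment to 0.5% NP-40 at 4°C and centrifugation at 21,000xg for 90 min, supernatant protein was measured by TMTpro 16plex LC-MS/MS with channel sums equalised.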

[1] = compound: CCCS(=O)(=O)Nc1ccc(F)c(C(=O)c2c[nH]c3ncc(Cl)cc23)c1F
Outline: as §1

barasertib = compound: CCN(CCCOc1ccc2c(Nc3cc(CC(=O)Nc4cccc(F)c4)[nH]n3)ncnc2c1)CCOP(=O)(O)O [barasertib]
Outline: as §1

[2] = compound: CC[C@@H]1C(=O)N(C)c2cnc(Nc3ccc(C(=O)NC4CCN(C)CC4)cc3OC)nc2N1C1CCCC1
Outline: as §1

volasertib = compound: CC[C@@H]1C(=O)N(C)c2cnc(Nc3ccc(C(=O)N[C@H]4CC[C@H](N5CCN(CC6CC6)CC5)CC4)cc3OC)nc2N1C(C)C [volasertib]
Outline: as §1

[3] = compound: CCn1c(C(=O)N(C2CC2)C2CC2)cc2c3c(ncn3C)c(Nc3cc(C)n(C)n3)nc21
Outline: as §1

[4] = compound: CCn1cc(-c2ccnc3[nH]c(-c4cccc(CN(C)C)c4)cc23)c(-c2ccc(NC(=O)N(C)C)cc2)n1
Outline: as §1

[5] = compound: CN1CCC(CNc2ccc3ncc(-c4cccc(OC(F)(F)F)c4)n3n2)CC1
Outline: as §1

saracatinib = compound: CN1CCN(CCOc2cc(OC3CCOCC3)c3c(Nc4c(Cl)ccc5c4OCO5)ncnc3c2)CC1 [saracatinib]
Outline: as §1

sotrastaurin = compound: CN1CCN(c2nc(C3=C(c4c[nH]c5ccccc45)C(=O)NC3=O)c3ccccc3n2)CC1 [sotrastaurin]
Outline: as §1

alvocidib = compound: CN1CC[C@H](c2c(O)cc(O)c3c(=O)cc(-c4ccccc4Cl)oc23)[C@H](O)C1 [alvocidib]
Outline: as §1

Tubastatin A = compound: CN1CCc2c(c3ccccc3n2Cc2ccc(C(=O)NO)cc2)C1 [Tubastatin A]
Outline: as §1

[6] = compound: CNC(=O)C1=CC=CC=C1NC2=NC(=NC=C2Cl)NC3=C(C=C(C=C3)N4CCOCC4)OC
Outline: as §1

defactinib = compound: CNC(=O)c1ccc(Nc2ncc(C(F)(F)F)c(NCc3nccnc3N(C)S(C)(=O)=O)n2)cc1 [defactinib]
Outline: as §1

[7] = compound: CNc1nc(-c2ccc3c(N)n[nH]c3c2)cc(N2C[C@@H](C(=O)NC3CCCCC3)CC[C@H]2C)n1
Outline: as §1

encorafenib = compound: COC(=O)N[C@@H](C)CNc1nccc(-c2cn(C(C)C)nc2-c2cc(Cl)cc(NS(C)(=O)=O)c2F)n1 [encorafenib]
Outline: as §1

[8] = compound: COC(=O)[C@H](CCSC)NC(=O)C1=C(C=C(C=C1)NC[C@H](CS)N)C2=CC=CC=C2
Outline: as §1

alisertib = compound: COc1cc(Nc2ncc3c(n2)-c2ccc(Cl)cc2C(c2c(F)cccc2OC)=NC3)ccc1C(=O)O [alisertib]
Outline: as §1

[9] = compound: COc1cc2nc(-c3cc(F)ccc3O)nc(N[C@@H]3CNC[C@H]3C(C)(C)O)c2cc1OC
Outline: as §1

gefitinib = compound: COc1cc2ncnc(Nc3ccc(F)c(Cl)c3)c2cc1OCCCN1CCOCC1 [gefitinib]
Outline: as §1

Target	log2 fold change (vemurafenib)	log2 fold change [1]	log2 fold change (barasertib)	log2 fold change [2]	log2 fold change (volasertib)	log2 fold change [3]	log2 fold change [4]	log2 fold change [5]	log2 fold change (saracatinib)	log2 fold change (sotrastaurin)	log2 fold change (alvocidib)	log2 fold change (Tubastatin A)	log2 fold change [6]	log2 fold change (defactinib)	log2 fold change [7]	log2 fold change (encorafenib)	log2 fold change [8]	log2 fold change (alisertib)	log2 fold change [9]	log2 fold change (gefitinib)
DDX5 (UniProt P17844)	inactive: -0.017	inactive: 0.009	inactive: -0.034	inactive: -0.029	inactive: -0.022	inactive: 0.031	inactive: 0.011	inactive: -0.072	inactive: 0.008	inactive: -0.006	inactive: 0.006	inactive: 0.006	inactive: 0.017	inactive: -0.002	inactive: -0.02	inactive: 0.034	inactive: 0.02	inactive: 0.024	inactive: -0.01	inactive: -0.001
DDT (UniProt P30046)	inactive: -0.009	inactive: -0.038	inactive: 0.166	inactive: -0.002	inactive: 0.05	inactive: 0.045	inactive: -0.136	inactive: 0.064	inactive: -0.012	inactive: -0.063	inactive: 0	inactive: 0.037	inactive: 0.041	inactive: 0.061	inactive: 0.03	inactive: -0.017	inactive: -0.07	inactive: 0.042	inactive: 0.013	inactive: -0.006
DDX24 (UniProt Q9GZR7)	inactive: 0.008	inactive: 0.008	inactive: -0.015	inactive: -0.015	inactive: -0.009	inactive: 0.001	inactive: -0.021	inactive: 0.041	inactive: 0.026	inactive: -0.016	inactive: 0.039	inactive: -0.043	inactive: -0.024	inactive: 0.018	inactive: 0.044	inactive: 0.014	inactive: -0.002	inactive: 0.029	inactive: -0.035	inactive: 0.013
DAD1 (UniProt P61803)	inactive: 0.168	inactive: 0.062	inactive: 0.177	inactive: -0.085	inactive: -0.08	inactive: 0.007	inactive: 0.119	inactive: -0.005	inactive: 0.18	inactive: -0.04	inactive: -0.086	inactive: 0.042	inactive: 0.047	inactive: 0.196	inactive: 0.033	inactive: 0.159	inactive: -0.149	inactive: 0.086	inactive: -0.076	inactive: -0.035
DDX20 (UniProt Q9UHI6)	inactive: -0.058	inactive: 0.018	inactive: 0.011	inactive: -0.087	inactive: -0.061	inactive: 0.036	inactive: -0.037	inactive: -0.094	inactive: 0.036	inactive: 0.004	inactive: 0.042	inactive: -0.213	inactive: -0.001	inactive: -0.03	inactive: -0.026	inactive: 0.076	inactive: 0.01	inactive: 0.016	inactive: -0.006	inactive: 0.025
DDB2 (UniProt Q92466)	inactive: -0.073	inactive: 0.001	inactive: 0.025	inactive: 0.015	inactive: -0.003	inactive: 0	inactive: 0.006	inactive: 0.019	inactive: -0.022	inactive: 0.075	inactive: 0	inactive: 0.06	inactive: 0.041	active: 0.262	inactive: 0.069	inactive: 0.079	inactive: -0.065	inactive: 0.045	inactive: 0.055	inactive: -0.131
DCAF4L2 (UniProt Q8NA75)	inactive: 0.22	inactive: 0.018	inactive: 0.059	inactive: -0.017	inactive: -0.026	inactive: 0.073	inactive: 0.13	inactive: -0.121	inactive: -0.048	inactive: 0.079	inactive: 0.001	inactive: 0.206	inactive: -0.045	inactive: 0.096	inactive: 0.266	inactive: 0.001	inactive: 0.046	inactive: -0.051	inactive: 0.072	inactive: 0.006
DCP2 (UniProt Q8IU60)	inactive: -0.05	inactive: -0.038	inactive: 0.014	inactive: 0.016	inactive: -0.061	inactive: -0.028	inactive: 0.059	inactive: -0.13	inactive: -0.023	inactive: -0.01	inactive: 0.023	inactive: -0.195	inactive: -0.013	inactive: -0.045	inactive: 0	inactive: 0	inactive: -0.117	inactive: -0.02	inactive: 0	inactive: 0.041
DAB2 (UniProt P98082)	inactive: -0.009	inactive: 0.025	inactive: 0.028	inactive: 0.061	inactive: -0.021	inactive: 0.02	inactive: 0.001	inactive: 0.016	inactive: 0.059	inactive: -0.033	inactive: -0.008	inactive: -0.071	inactive: -0.014	inactive: 0.012	inactive: 0.023	inactive: 0.016	inactive: 0	inactive: 0.002	inactive: -0.014	inactive: -0.002
DENND4B (UniProt O75064)	inactive: 0.034	inactive: 0.015	inactive: 0.008	inactive: 0.07	inactive: 0.031	inactive: -0.005	inactive: -0.095	inactive: 0.044	inactive: -0.03	inactive: 0.008	inactive: -0.072	inactive: 0.106	inactive: -0.006	inactive: -0.017	inactive: -0.012	inactive: 0.021	inactive: 0.002	inactive: -0.059	inactive: 0.008	inactive: 0.023
DCUN1D4 isoform 3 (UniProt Q92564)	inactive: 0.066	inactive: 0.075	inactive: -0.027	active: -0.321	inactive: 0.049	inactive: -0.02	inactive: -0.036	inactive: 0.02	inactive: 0.005	inactive: 0.028	inactive: -0.276	inactive: 0.081	inactive: 0.003	inactive: 0.014	inactive: 0.035	inactive: 0.034	inactive: 0.131	inactive: 0.055	inactive: -0.043	inactive: -0.049
DDX50 (UniProt Q9BQ39)	inactive: 0.097	inactive: 0.079	inactive: -0.208	inactive: -0.219	inactive: -0.022	inactive: 0.042	inactive: -0.063	inactive: 0.012	inactive: -0.01	inactive: -0.022	inactive: 0.085	inactive: -0.148	inactive: 0.036	inactive: -0.064	inactive: 0.012	inactive: -0.002	inactive: 0.009	inactive: 0.024	inactive: 0.013	inactive: -0.014
DEF6 (UniProt Q9H4E7)	inactive: -0.004	inactive: -0.005	inactive: -0.05	inactive: -0.101	inactive: -0.05	inactive: -0.033	inactive: -0.071	inactive: 0.049	inactive: 0.07	inactive: 0.004	inactive: -0.036	inactive: -0.154	inactive: 0.027	inactive: -0.07	inactive: 0.039	inactive: 0.019	inactive: -0.002	inactive: 0.097	inactive: 0.013	inactive: -0.01
DCTN5 (UniProt Q9BTE1)	inactive: -0.051	inactive: -0.015	inactive: -0.03	inactive: 0.022	inactive: -0.021	inactive: 0.055	inactive: 0.046	inactive: -0.009	inactive: -0.033	inactive: -0.034	inactive: 0.01	inactive: 0.076	inactive: -0.064	inactive: -0.172	inactive: 0.089	inactive: -0.11	inactive: 0.032	inactive: -0.027	inactive: 0.035	inactive: -0.011
DDX52 (UniProt Q9Y2R4)	inactive: -0.024	inactive: 0.013	inactive: -0.008	inactive: 0.124	inactive: -0.003	inactive: 0.013	inactive: -0.052	inactive: 0.019	inactive: 0.018	inactive: 0.035	inactive: -0.042	inactive: -0.086	inactive: 0.129	inactive: 0.027	inactive: -0.013	inactive: 0.054	inactive: -0.048	inactive: -0.036	inactive: 0.031	inactive: 0.063
DERL1 (UniProt Q9BUN8)	inactive: 0.067	inactive: 0.012	inactive: -0.075	inactive: 0.098	inactive: 0.013	inactive: -0.02	inactive: -0.213	inactive: 0.082	inactive: -0.074	inactive: 0.054	inactive: 0.008	inactive: 0.009	inactive: -0.001	inactive: -0.017	inactive: 0.034	inactive: -0.017	inactive: -0.043	inactive: -0.061	inactive: -0.087	inactive: 0.045

Rewritten in markdown: part of the list above.

| Target | log2 fold change (vemurafenib) | log2 fold change [1] | log2 fold change (barasertib) | log2 fold change [2] | log2 fold change (volasertib) | log2 fold change [3] | log2 fold change [4] | log2 fold change [5] | log2 fold change (saracatinib) | log2 fold change (sotrastaurin) | log2 fold change (alvocidib) | log2 fold change (Tubastatin A) | log2 fold change [6] | log2 fold change (defactinib) | log2 fold change [7] | log2 fold change (encorafenib) | log2 fold change [8] | log2 fold change (alisertib) | log2 fold change [9] | log2 fold change (gefitinib) |
| --- | --- | --- | --- | --- | --- | --- | --- | --- | --- | --- | --- | --- | --- | --- | --- | --- | --- | --- | --- | --- |
| DCAF4L2 (UniProt Q8NA75) | inactive: 0.22 | inactive: 0.018 | inactive: 0.059 | inactive: -0.017 | inactive: -0.026 | inactive: 0.073 | inactive: 0.13 | inactive: -0.121 | inactive: -0.048 | inactive: 0.079 | inactive: 0.001 | inactive: 0.206 | inactive: -0.045 | inactive: 0.096 | inactive: 0.266 | inactive: 0.001 | inactive: 0.046 | inactive: -0.051 | inactive: 0.072 | inactive: 0.006 |
| DCP2 (UniProt Q8IU60) | inactive: -0.05 | inactive: -0.038 | inactive: 0.014 | inactive: 0.016 | inactive: -0.061 | inactive: -0.028 | inactive: 0.059 | inactive: -0.13 | inactive: -0.023 | inactive: -0.01 | inactive: 0.023 | inactive: -0.195 | inactive: -0.013 | inactive: -0.045 | inactive: 0 | inactive: 0 | inactive: -0.117 | inactive: -0.02 | inactive: 0 | inactive: 0.041 |
| DAB2 (UniProt P98082) | inactive: -0.009 | inactive: 0.025 | inactive: 0.028 | inactive: 0.061 | inactive: -0.021 | inactive: 0.02 | inactive: 0.001 | inactive: 0.016 | inactive: 0.059 | inactive: -0.033 | inactive: -0.008 | inactive: -0.071 | inactive: -0.014 | inactive: 0.012 | inactive: 0.023 | inactive: 0.016 | inactive: 0 | inactive: 0.002 | inactive: -0.014 | inactive: -0.002 |
